These are yes or no findings as the source states them, for the method shown. Binding seen in cells or lysates may run through a third protein.

Sequences of proteins named here, by UniProt entry; tags and fusion partners are left off.
UniProt Q14240: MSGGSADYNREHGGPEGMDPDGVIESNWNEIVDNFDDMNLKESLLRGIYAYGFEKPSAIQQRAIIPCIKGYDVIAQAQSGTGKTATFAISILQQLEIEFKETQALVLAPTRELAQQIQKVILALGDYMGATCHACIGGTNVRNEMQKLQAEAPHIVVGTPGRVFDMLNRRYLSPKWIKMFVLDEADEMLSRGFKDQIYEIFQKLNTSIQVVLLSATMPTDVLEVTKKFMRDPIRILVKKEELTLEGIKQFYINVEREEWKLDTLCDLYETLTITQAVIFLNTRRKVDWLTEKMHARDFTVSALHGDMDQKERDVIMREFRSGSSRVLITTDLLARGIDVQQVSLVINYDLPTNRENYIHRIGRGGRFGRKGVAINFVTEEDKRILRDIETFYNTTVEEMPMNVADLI
UniProt P60842: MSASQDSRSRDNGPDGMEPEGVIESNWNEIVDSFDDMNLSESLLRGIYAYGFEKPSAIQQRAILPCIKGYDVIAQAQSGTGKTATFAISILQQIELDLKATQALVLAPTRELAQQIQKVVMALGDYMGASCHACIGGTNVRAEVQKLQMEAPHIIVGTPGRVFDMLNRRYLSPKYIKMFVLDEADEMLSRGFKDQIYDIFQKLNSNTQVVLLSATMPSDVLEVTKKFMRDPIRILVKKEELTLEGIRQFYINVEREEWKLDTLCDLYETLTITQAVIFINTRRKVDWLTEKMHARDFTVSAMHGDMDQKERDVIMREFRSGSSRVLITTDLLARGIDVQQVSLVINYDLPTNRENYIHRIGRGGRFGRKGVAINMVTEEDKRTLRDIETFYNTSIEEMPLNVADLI
UniProt P04406: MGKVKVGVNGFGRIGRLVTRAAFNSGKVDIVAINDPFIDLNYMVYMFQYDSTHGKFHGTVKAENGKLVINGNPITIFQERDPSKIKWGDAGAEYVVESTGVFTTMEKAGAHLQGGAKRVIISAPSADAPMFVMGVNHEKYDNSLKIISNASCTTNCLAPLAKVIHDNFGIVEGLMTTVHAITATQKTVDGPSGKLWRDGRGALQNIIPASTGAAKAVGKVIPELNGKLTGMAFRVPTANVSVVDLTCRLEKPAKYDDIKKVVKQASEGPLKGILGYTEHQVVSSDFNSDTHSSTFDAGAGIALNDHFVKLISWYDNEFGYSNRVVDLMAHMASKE

Data on one substance can be found in article PMC4212580.

In experiment [1] the target is GFP-eIF4AII (eukaryotic translation initiation factor eIF4AII, GFP fused to the N-terminus) (human) (UniProt Q14240). Put plainly: co-IP; same immunoprecipitation on anti-GFP beads from transfected 293T lysate; bound fraction read by western blot (Figure 2A) and silver-stained gel (Figure 2B). In general terms: Immunoblotting shows a protein as a band on a membrane.
In experiment [2] the target is GFP-eIF4AI (eukaryotic translation initiation factor eIF4AI, GFP fused to the N-terminus) (human) (UniProt P60842). The description is as above.

As for GAPDH (from UniProt P04406 1-335), the binding result in experiment [1] and in experiment [2] was “no binding” each time.
